According to PMC7819943, “Rice protein-binding microarrays: a tool to detect cis-acting elements near promoter regions in rice”:
Some of the results follow.

Target: T1, OsSMF1 (Oryza sativa, UniProt Q6ZLB0 1-436)
T1 sequence: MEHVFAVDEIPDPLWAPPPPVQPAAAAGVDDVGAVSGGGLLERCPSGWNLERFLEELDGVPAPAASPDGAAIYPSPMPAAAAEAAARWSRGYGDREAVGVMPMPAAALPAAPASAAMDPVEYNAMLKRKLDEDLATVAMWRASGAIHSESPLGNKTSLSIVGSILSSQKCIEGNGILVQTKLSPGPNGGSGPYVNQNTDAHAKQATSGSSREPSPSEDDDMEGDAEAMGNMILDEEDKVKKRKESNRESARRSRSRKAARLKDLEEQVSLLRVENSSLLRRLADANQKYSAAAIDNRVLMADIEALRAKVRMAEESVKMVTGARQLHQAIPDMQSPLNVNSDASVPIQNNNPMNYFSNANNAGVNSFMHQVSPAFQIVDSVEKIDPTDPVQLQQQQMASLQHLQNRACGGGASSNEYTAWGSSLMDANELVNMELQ
Assay: protein-binding microarray (RPBM); PBS, 2% BSA, 51.3 ng/ul salmon testes DNA, 50 uM zinc acetate, 200 nM TF, 25 C, 1 h; high values mean tight binding
Details: protein: recombinant; tags: N-terminal polyhistidine and DsRed monomer fusion (pET32a); chain copies: 2; label: CyDye5-dUTP incorporated in the synthesized complementary strand; 3' TTTTT single-stranded linker to array surface; dsDNA, one strand shown
Summary of the method: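 Binding signal is reported as fluorescence intensity per feature (arbitrary units) from an Axon 4000B scanner. Incubation used 200 nM of each Ni–NTA-purified, N-terminally polyhistidine- and DsRed-fused transcription factor from E. coli BL21-CodonPlus on a double-stranded custom Agilent array for 1 h at 25 °C, with 50 µM zinc acetate in the buffer, followed by washing.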

Sequence | binding signal
AGATTTTGAGTCACATTTGACTCATGTCAGACAAGTCTTACGGAGTCACCTAGTGCAG | 29300 fluorescence intensity (a.u.)
GTTTTAATCTACGTGGCAGTTGAGTCAGCATGGGACTCACCGGAGTCACCTAGTGCAG | 18900 fluorescence intensity (a.u.)
CAAAGGGGCCCACCGAAGATGACCAAGTAGACAAGATTGGCGGAGTCACCTAGTGCAG | 3760 fluorescence intensity (a.u.)
TCCCATGTCTCCGCCGCCGCGTCACCGCCCAGCACGAACCCGGAGTCACCTAGTGCAG | 9060 fluorescence intensity (a.u.)
AGTTTTGATTGTTTTGAATACCTGGACTCTCTCACTATATCGGAGTCACCTAGTGCAG | 3640 fluorescence intensity (a.u.)
GGTGATGCGGTCGACAAGCTCCCCGAGCTCACGTGGCGGCCGGAGTCACCTAGTGCAG | 7930 fluorescence intensity (a.u.)
CTCTGAGTGGAAGGGCAGAGTCAGTGATGCTGCGTGGGAGCGGAGTCACCTAGTGCAG | 4770 fluorescence intensity (a.u.)
CGTTGCAGAGCGACGTGGTCTTATCTGAGACGTCCGTACCCGGAGTCACCTAGTGCAG | 3410 fluorescence intensity (a.u.)
CACCGACAGGCATGGCCCACACGTCAGGCGTGGCCGCCCGCGGAGTCACCTAGTGCAG | 11100 fluorescence intensity (a.u.)
GACTCATCTTTTGGCAGCGACTCGCGTGGATCCTGACAAACGGAGTCACCTAGTGCAG | 3210 fluorescence intensity (a.u.)
GTTAGTCATATCCATGGGTGGTTTGCATGGGAGAAGTCAGCGGAGTCACCTAGTGCAG | 4220 fluorescence intensity (a.u.)
CCGTAATGCTGGAACTATGGCGAATGCATCTATCGTCATTCGGAGTCACCTAGTGCAG | 3170 fluorescence intensity (a.u.)
TTATGAACTTGCTCAGTTTGCTAAACGGACGGCACATTACCGGAGTCACCTAGTGCAG | 32100 fluorescence intensity (a.u.)
ATTAGTTGATTTGCAAATAATTTCCACCGTGGCGTGACAACGGAGTCACCTAGTGCAG | 4300 fluorescence intensity (a.u.)
CTCCTGGTACGCCTCGCTCAGCTCGTCCACCGTCGCCTCCCGGAGTCACCTAGTGCAG | 3750 fluorescence intensity (a.u.)
ATGGGTCGACCCACGTATCCACTCAGCGTTTACATTACCACGGAGTCACCTAGTGCAG | 17700 fluorescence intensity (a.u.)
CCAGACTGCCTAACTGTACAGTCACGGCGCCATCTCGGACCGGAGTCACCTAGTGCAG | 4250 fluorescence intensity (a.u.)
GCGCAAGCAAACCAACCTGACTCCGACCCGTACCCGTCCCCGGAGTCACCTAGTGCAG | 4600 fluorescence intensity (a.u.)
GCGAGCGGCCAACTGGGAAGGCGGTGGTGAGGACATCGTGCGGAGTCACCTAGTGCAG | 5400 fluorescence intensity (a.u.)
AGCAATCGTGTGCGCGTAGCCACACGTATCAGCGCCCCACCGGAGTCACCTAGTGCAG | 3220 fluorescence intensity (a.u.)
ATTGGTCCACACGTCATACTCTTATTTTCTAGCCAAAGTTCGGAGTCACCTAGTGCAG | 13500 fluorescence intensity (a.u.)

Sequence | binding signal
TCCTTCTTCCTTGGCCTCTTCCTAATGACAAGCCCTTGCGCGGAGTCACCTAGTGCAG | 3610 fluorescence intensity (a.u.)
AATTGTTATGACGTGTCCCATGCATTATCAAACTTTGTGTCGGAGTCACCTAGTGCAG | 20800 fluorescence intensity (a.u.)
GCGAAAACCCTGCATAAACATAGGAAAACACCAAGTGGGTCGGAGTCACCTAGTGCAG | 3560 fluorescence intensity (a.u.)
TTAGGTGTGGGAGGTTAGCTTATTAGATTACTTGCCGTGTCGGAGTCACCTAGTGCAG | 3450 fluorescence intensity (a.u.)
GTTCTCTAATGATACCCGTATGTCAGTTATCTCGTTGGAACGGAGTCACCTAGTGCAG | 15100 fluorescence intensity (a.u.)
GCTTCGACGTGTCCGTGCCACGTGCCGTCCCTCCATTCGCCGGAGTCACCTAGTGCAG | 18000 fluorescence intensity (a.u.)
TGACGCTCCGGTGCAGCAGCAGCAGCAGCAGCGTGGCATTCGGAGTCACCTAGTGCAG | 4460 fluorescence intensity (a.u.)
TTTGTTAGTTGCACAAAAGATTAGCACATGTTTTCTTTTACGGAGTCACCTAGTGCAG | 3780 fluorescence intensity (a.u.)
GGGTCGGACGGTGGCGTACCTGGGTCTTGGCGCCACAGATCGGAGTCACCTAGTGCAG | 3500 fluorescence intensity (a.u.)
TTGATGCTATAAAAGGATTGTTGACAACGTGGTCACGCACCGGAGTCACCTAGTGCAG | 4310 fluorescence intensity (a.u.)
AGTGCCTGTGTGCCCACCACGTACTCTCCAACTATACATGCGGAGTCACCTAGTGCAG | 3840 fluorescence intensity (a.u.)
CCGACGAGGACGAGGCGGCGTGGTCGAAGCCGGCGGTCGGCGGAGTCACCTAGTGCAG | 42500 fluorescence intensity (a.u.)
GGCCGGCGGCGAGAGCAGCTCGATCGCAGTAGCGATGGATCGGAGTCACCTAGTGCAG | 29200 fluorescence intensity (a.u.)
GTTGAGTGGAAATGTTTGTGCGCTTTCTGAAACCTATACTCGGAGTCACCTAGTGCAG | 15700 fluorescence intensity (a.u.)
ATATGTTACTCTCGCATCATATCCCCGGTTCTGTATGACACGGAGTCACCTAGTGCAG | 4200 fluorescence intensity (a.u.)
CGGTGGATGCTGGAAAATCTTGTGCTTTATGCCGCGGTGACGGAGTCACCTAGTGCAG | 3940 fluorescence intensity (a.u.)
AGTGGCCTAATTGCCAACCTAGATGATGCGACATTCCAGCCGGAGTCACCTAGTGCAG | 3640 fluorescence intensity (a.u.)
CTCGCAAAGCATCGACGTGCCACCTACCCCATCCGGAACACGGAGTCACCTAGTGCAG | 3330 fluorescence intensity (a.u.)
TCGGAAATCGTTTCCGTGCTCACCACGTACTCACCAGCGCCGGAGTCACCTAGTGCAG | 6000 fluorescence intensity (a.u.)
GCTAAACTAAACACAGCCTTCGTCAGGTCATCGCCGATCACGGAGTCACCTAGTGCAG | 3280 fluorescence intensity (a.u.)
TAGTTTTGTGACACTTCATTTTAAACGTGTAGTTTTGTGGCGGAGTCACCTAGTGCAG | 4850 fluorescence intensity (a.u.)

Laid out differently: results already given.
AGTGGCCTAATTGCCAACCTAGATGATGCGACATTCCAGCCGGAGTCACCTAGTGCAG
  binding signal = 3640 fluorescence intensity (a.u.)
TAGTTTTGTGACACTTCATTTTAAACGTGTAGTTTTGTGGCGGAGTCACCTAGTGCAG
  binding signal = 4850 fluorescence intensity (a.u.)
